{"source": "PubChem BioAssay AID504444", "about": "(National Center for Advancing Translational Sciences (NCATS), 2011)", "note": "The whole screen tested about 360,000 compounds, of which about 7,500 (2.1%) were called active. The shares of active, inactive and inconclusive entries below differ from those in the screen. Calls follow the shape of the dose curve; as a rule, active = well fitted inhibition curve with a large enough effect; inconclusive = small, poorly fitted or top-dose-only effect, or effect the other way; inactive = flat fitted curve, though single readings scatter. A potency beside an inconclusive call is a rough fit, not a confirmed value. % is scaled to controls: 0 for no effect and ±100 for the full control effect; potency is read from the fitted curve at half-maximal effect."}
{"assay": "Nrf2 qHTS screen for inhibitors; also: nearly all actives have a fitted effect of over 60% in size", "settings": "A549 ARE-Fluc reporter, luciferase luminescence, 18-24 h; activity change, negative = inhibition: at 46 µM (top of the series)", "in_short": "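A549 ARE_Fluc cells, 5000/well, 5% FBS OPTI-MEM; compounds in dose-response, 18-24 h at 37 °C/5% CO2; CellTiter-Fluor viability read (Ex 405/Em 525), then BugLite luciferase luminescence = Nrf2 activity.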"}
{"smiles": "O=C(Nc1ccccc1N1CCCCC1)c1ccc([N+](=O)[O-])o1", "Potency": "inconclusive: 20.6 µM [falling, partial curve, poor fit]"}
{"smiles": "CC(=O)Nc1ccc(S(=O)(=O)N2CCC(c3nc4ccc(C)cc4[nH]3)CC2)cc1", "activity change, negative = inhibition": "inactive: -26.8%"}
{"smiles": "CCc1nc(NC(C)(C)C)c2cnn(-c3ccccc3)c2n1", "Potency": "inconclusive: 20.6 µM [activator, partial curve]"}
{"smiles": "O=C(COc1ccc(F)cc1)OCc1cc(=O)n2nc(C3CC3)sc2n1", "Potency": "inconclusive: 16.4 µM [activator, partial curve, poor fit]"}
{"smiles": "COc1ccc(-c2noc(C3CCCN(C(=O)c4cccc(C)c4)C3)n2)cc1", "note": "(stereo unspecified)", "Potency": "inconclusive: 29.1 µM [falling, single point]"}
{"smiles": "COc1ccccc1C1=NN(C(=O)c2ccccc2)C(c2ccc(Br)cc2)C1", "note": "(stereo unspecified)", "Potency": "inconclusive: 29.1 µM [activator, single point]"}
{"smiles": "CN(/N=C/c1ccc(O)cc1O)c1ncc(C(F)(F)F)cc1Cl", "activity change, negative = inhibition": "inactive: 12.2%"}
{"smiles": "CCc1ccc(C(=O)c2cn(Cc3ccccc3)c3cc(OC)c(OC)cc3c2=O)cc1", "Potency": "inconclusive: 29.1 µM [falling, single point]"}
{"smiles": "O=C(/C=C/c1cc(Br)ccc1F)Nc1cccnc1", "Potency": "inconclusive: 29.1 µM [activator, single point]"}
{"smiles": "COC(=O)C1=C(C(=O)OC)[C@@H]2N(Cc3ccccc3)c3ccccc3[C@@]23C[C@@H](C(=O)OC)N(C(=O)COCc2ccccc2)C3=N1", "Potency": "inconclusive: 29.1 µM [falling, single point]"}
{"smiles": "CN1CCN(C(=O)CCCOc2cc(=O)n(C)c3ccccc23)CC1", "Potency": "inconclusive: 10.3 µM [falling, partial curve, poor fit]"}
{"smiles": "COc1ccccc1NC(=O)CSc1nc(-c2cccc(Cl)c2)nc2c1Cc1c(CO)cnc(C)c1O2", "Potency": "inconclusive: 29.1 µM [activator, single point]"}
{"smiles": "CCOC(=O)N1CCN(c2ccc(O)cc2)CC1", "Potency": "inconclusive: 11.6 µM [falling, partial curve]"}
{"smiles": "CC(C)c1cccc(C(C)C)c1NC(=O)COC(=O)c1ccc(OCC(=O)Nc2cccc(C(F)(F)F)c2)cc1", "Potency": "inconclusive: 18.4 µM [falling, partial curve, poor fit]"}
{"smiles": "COc1ccc(Nc2nc(C)c(-c3ccccc3)s2)cc1", "Potency": "inconclusive: 20.6 µM [activator, partial curve, poor fit]"}
{"smiles": "COc1cc(COc2ccc(S(=O)(=O)N3CCOCC3)cc2[N+](=O)[O-])ccc1OC(F)F", "Potency": "inconclusive: 29.1 µM [falling, single point]"}
{"smiles": "COc1ccc(N2CCN(Cc3cc(=O)oc4cc(C)c(Cl)c(C)c34)CC2)cc1", "activity change, negative = inhibition": "inconclusive: 20.4% [activator]"}
{"smiles": "Cc1nc(-c2ccccc2)sc1C(=O)Nc1ccccc1F", "Potency": "inconclusive: 8.2 µM [activator, partial curve, poor fit]"}
{"smiles": "CCn1ncc(CNC(=O)CCCSc2nc(-c3ccco3)cc(C(F)(F)F)n2)c1C", "Potency": "inconclusive: 16.4 µM [falling, single point]"}
{"smiles": "O=C(/C=C/Nc1ccccc1F)c1cccs1", "Potency": "inconclusive: 2.91 µM [activator, partial curve]"}
{"smiles": "Nc1ccc(N2CCN(C(=O)c3ccco3)CC2)cc1", "Potency": "inconclusive: 9.2 µM [falling, partial curve, poor fit]"}
{"smiles": "CC(=NNc1nc2ccccc2o1)c1ncccn1", "Potency": "active: 3.26 µM"}
{"smiles": "O=C(Nc1ccccc1)SC1CCCCC1", "Potency": "inconclusive: 5.17 µM [activator, full curve]"}
{"smiles": "COC(=O)c1cc(COc2ccc3ccc(=O)oc3c2)c(C)o1", "activity change, negative = inhibition": "inactive: 15.4%"}
{"smiles": "CCOC(=O)NC(Nc1ccc(S(N)(=O)=O)cc1)(C(=O)OCC)C(F)(F)F", "note": "(stereo unspecified)", "Potency": "inconclusive: 14.6 µM [activator, partial curve, poor fit]"}
{"smiles": "CCCCSC(=S)NC1CCS(=O)(=O)C1", "note": "(stereo unspecified)", "activity change, negative = inhibition": "inactive: -25.3%"}
{"smiles": "COc1ccccc1CC(=O)NCc1nn(-c2ccccc2)nc1C", "activity change, negative = inhibition": "inactive: -12.1%"}
{"smiles": "NC(=O)C1CCN(c2nc(-c3ccccc3-c3ccccc3)cs2)CC1", "Potency": "inconclusive: 23.1 µM [falling, single point]"}
{"smiles": "O=S(=O)(N1CCCCCC1)N1CCN(S(=O)(=O)N2CCOCC2)CC1", "Potency": "inconclusive: 18.4 µM [activator, partial curve, poor fit]"}
{"smiles": "COc1ccc(NC(=O)Nc2ccc(N(C)C)cc2)cc1", "Potency": "inconclusive: 1.3 µM [activator, partial curve, poor fit]"}
{"smiles": "O=C(CSc1nnc(-c2cccc(Cl)c2)o1)Nc1ccc2c(c1)OCCO2", "Potency": "inconclusive: 29.1 µM [activator, single point]"}
{"smiles": "CCCOc1ccc(Cn2c(=O)sc3ccccc32)cc1", "Potency": "inconclusive: 18.4 µM [falling, partial curve, poor fit]"}
{"smiles": "O=C(Nc1cccc(F)c1)c1ccc(-c2ccccc2Cl)o1", "Potency": "inconclusive: 14.6 µM [activator, partial curve, poor fit]"}
{"smiles": "COc1ccc(/C=N/Nc2nc(C(=O)O)cs2)cc1", "Potency": "inconclusive: 6.51 µM [activator, partial curve]"}
{"smiles": "CCOc1ccc(/C=C/c2nc(C#N)c(N3CCCCCC3)o2)cc1", "activity change, negative = inhibition": "inactive: 11.8%"}
{"smiles": "CCc1ccc(CN2CCCC(C(=O)N3CCCCC3)C2)cc1", "note": "(stereo unspecified)", "Potency": "inconclusive: 29.1 µM [falling, single point]"}
{"smiles": "CCC(C)(c1nnnn1-c1c(C)cccc1C)N(N=O)c1ccccc1Cl", "note": "(stereo unspecified)", "Potency": "inconclusive: 32.6 µM [falling, partial curve, poor fit]"}
{"smiles": "N#Cc1c(/N=C/C=C/c2ccccc2)sc2c1CCCC2", "Potency": "inconclusive: 18.4 µM [activator, single point]"}
{"smiles": "COc1ccc(NC(=O)c2cccc(OC(F)F)c2)cc1Cl", "Potency": "inconclusive: 3.26 µM [activator, full curve, poor fit]"}
{"smiles": "O=C(N/N=C1\\CCCc2ccccc21)c1ccc([N+](=O)[O-])cc1Cl", "Potency": "inconclusive: 32.6 µM [falling, single point]"}
{"smiles": "CCn1cnc2cc(NCc3ccccc3Cl)ccc21", "Potency": "inconclusive: 6.51 µM [activator, single point]"}
